We go through two molecules from publication PMC4980336.

Amino acid sequences for entries named in this document (tags omitted).
UniProt P53618: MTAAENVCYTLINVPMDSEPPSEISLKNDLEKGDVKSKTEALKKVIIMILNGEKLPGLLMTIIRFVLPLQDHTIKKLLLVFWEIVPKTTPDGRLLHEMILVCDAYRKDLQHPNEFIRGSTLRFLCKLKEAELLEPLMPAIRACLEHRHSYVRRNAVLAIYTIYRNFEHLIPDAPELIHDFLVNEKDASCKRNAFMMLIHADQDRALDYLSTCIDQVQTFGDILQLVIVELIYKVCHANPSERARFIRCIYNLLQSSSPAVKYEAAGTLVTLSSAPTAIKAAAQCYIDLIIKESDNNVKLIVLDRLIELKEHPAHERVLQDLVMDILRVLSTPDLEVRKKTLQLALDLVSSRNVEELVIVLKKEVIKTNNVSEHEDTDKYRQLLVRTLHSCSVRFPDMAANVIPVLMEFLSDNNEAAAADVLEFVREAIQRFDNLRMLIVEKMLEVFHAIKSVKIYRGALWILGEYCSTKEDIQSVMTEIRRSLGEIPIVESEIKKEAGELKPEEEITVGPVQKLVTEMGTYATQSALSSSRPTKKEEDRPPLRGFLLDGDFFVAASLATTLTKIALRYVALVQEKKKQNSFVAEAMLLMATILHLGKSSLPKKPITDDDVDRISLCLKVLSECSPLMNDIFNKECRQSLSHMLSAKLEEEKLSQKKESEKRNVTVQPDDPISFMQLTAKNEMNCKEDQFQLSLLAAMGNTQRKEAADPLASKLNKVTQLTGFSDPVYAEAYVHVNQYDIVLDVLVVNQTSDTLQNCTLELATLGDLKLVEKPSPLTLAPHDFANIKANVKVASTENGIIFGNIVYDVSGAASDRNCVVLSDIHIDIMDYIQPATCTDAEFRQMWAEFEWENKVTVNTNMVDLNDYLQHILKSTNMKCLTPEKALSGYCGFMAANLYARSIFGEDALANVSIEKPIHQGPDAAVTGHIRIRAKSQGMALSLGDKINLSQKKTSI

Assay [1] concerns the target T1, α-COP isoform 1 (subunit of recombinant human coatomer) (human) (UniProt P53621).
T1 sequence: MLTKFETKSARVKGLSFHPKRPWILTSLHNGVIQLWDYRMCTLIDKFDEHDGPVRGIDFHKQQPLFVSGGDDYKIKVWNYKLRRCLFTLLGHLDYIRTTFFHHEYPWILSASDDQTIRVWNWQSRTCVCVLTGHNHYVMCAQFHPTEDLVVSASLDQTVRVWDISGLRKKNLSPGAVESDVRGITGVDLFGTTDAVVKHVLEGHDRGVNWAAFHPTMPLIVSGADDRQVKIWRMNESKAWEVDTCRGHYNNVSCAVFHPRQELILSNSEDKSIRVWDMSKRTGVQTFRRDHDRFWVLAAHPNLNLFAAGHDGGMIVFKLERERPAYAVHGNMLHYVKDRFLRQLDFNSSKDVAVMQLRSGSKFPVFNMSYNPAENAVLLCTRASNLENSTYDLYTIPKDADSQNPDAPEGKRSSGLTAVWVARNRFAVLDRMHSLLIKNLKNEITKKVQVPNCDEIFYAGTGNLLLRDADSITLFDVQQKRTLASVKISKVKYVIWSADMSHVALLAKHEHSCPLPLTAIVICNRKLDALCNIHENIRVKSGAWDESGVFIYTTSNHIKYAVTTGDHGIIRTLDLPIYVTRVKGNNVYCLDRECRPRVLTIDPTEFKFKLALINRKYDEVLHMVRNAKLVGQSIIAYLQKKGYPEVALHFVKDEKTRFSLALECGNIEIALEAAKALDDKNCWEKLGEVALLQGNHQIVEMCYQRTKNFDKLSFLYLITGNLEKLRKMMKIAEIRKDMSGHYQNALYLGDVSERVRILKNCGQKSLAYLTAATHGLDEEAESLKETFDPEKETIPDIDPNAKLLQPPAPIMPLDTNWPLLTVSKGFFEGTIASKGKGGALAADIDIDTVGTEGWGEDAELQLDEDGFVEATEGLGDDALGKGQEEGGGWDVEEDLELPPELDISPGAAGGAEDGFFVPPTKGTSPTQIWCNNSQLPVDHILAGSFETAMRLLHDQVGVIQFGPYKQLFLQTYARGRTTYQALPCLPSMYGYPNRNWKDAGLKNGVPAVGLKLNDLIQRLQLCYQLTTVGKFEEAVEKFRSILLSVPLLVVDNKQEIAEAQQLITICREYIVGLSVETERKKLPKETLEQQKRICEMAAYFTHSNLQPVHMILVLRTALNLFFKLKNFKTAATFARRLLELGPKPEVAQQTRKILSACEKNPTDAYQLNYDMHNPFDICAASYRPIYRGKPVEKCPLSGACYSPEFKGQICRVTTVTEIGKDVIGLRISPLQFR
In words: negative-stain EM, single-particle reconstruction; soluble recombinant human coatomer, co-expressed and purified as one complex; 2% uranyl acetate; 19 Å overall, 18 Å and 20 Å for the two parts after focus refinement; model of membrane-bound coatomer (PDB 5A1U) fitted as a rigid body; both purified.

In assay [2] the target is β-COP (subunit of recombinant human coatomer) (human) (UniProt P53618). Nature of the assay: cross-linking; CXMS: about 12 μg purified COPI complex (co-expressed and purified as one complex) with BS3, DSS or Sulfo-GMBS, protein : cross-linker 1:8 or 1:4, one hour at room temperature; trypsin, LC-MS/MS, pLink; both purified.

These are yes or no findings as the source states them, for the method shown. Some entries that bind do so weakly or less than the wild type.

B1: β′-COP (subunit of recombinant human coatomer) (protein, UniProt P35606-1 1-906)
chain: MPLRLDIKRKLTARSDRVKSVDLHPTEPWMLASLYNGSVCVWNHETQTLVKTFEVCDLPVRAAKFVARKNWVVTGADDMQIRVFNYNTLERVHMFEAHSDYIRCIAVHPTQPFILTSSDDMLIKLWDWDKKWSCSQVFEGHTHYVMQIVINPKDNNQFASASLDRTIKVWQLGSSSPNFTLEGHEKGVNCIDYYSGGDKPYLISGADDRLVKIWDYQNKTCVQTLEGHAQNVSCASFHPELPIIITGSEDGTVRIWHSSTYRLESTLNYGMERVWCVASLRGSNNVALGYDEGSIIVKLGREEPAMSMDANGKIIWAKHSEVQQANLKAMGDAEIKDGERLPLAVKDMGSCEIYPQTIQHNPNGRFVVVCGDGEYIIYTAMALRNKSFGSAQEFAWAHDSSEYAIRESNSIVKIFKNFKEKKSFKPDFGAESIYGGFLLGVRSVNGLAFYDWDNTELIRRIEIQPKHIFWSDSGELVCIATEESFFILKYLSEKVLAAQETHEGVTEDGIEDAFEVLGEIQEIVKTGLWVGDCFIYTSSVNRLNYYVGGEIVTIAHLDRTMYLLGYIPKDNRLYLGDKELNIISYSLLVSVLEYQTAVMRRDFSMADKVLPTIPKEQRTRVAHFLEKQGFKQQALTVSTDPEHRFELALQLGELKIAYQLAVEAESEQKWKQLAELAISKCQFGLAQECLHHAQDYGGLLLLATASGNANMVNKLAEGAERDGKNNVAFMSYFLQGKVDACLELLIRTGRLPEAAFLARTYLPSQVSRVVKLWRENLSKVNQKAAESLADPTEYENLFPGLKEAFVVEEWVKETHADLWPAKQYPLVTPNEERNVMEEGKDFQPSRSTAQQELDGKPASPTPVIVASHTANKEEKSLLELEVDLDNLELEDIDTTDINLDEDILDD
B1: the binding entry in assay [1] is listed as “binds”.

B2: δ-COP isoform 1 (subunit of recombinant human coatomer) (protein, UniProt P48444-1 1-511)
chain: MVLLAAAVCTKAGKAIVSRQFVEMTRTRIEGLLAAFPKLMNTGKQHTFVETESVRYVYQPMEKLYMVLITTKNSNILEDLETLRLFSRVIPEYCRALEENEISEHCFDLIFAFDEIVALGYRENVNLAQIRTFTEMDSHEEKVFRAVRETQEREAKAEMRRKAKELQQARRDAERQGKKAPGFGGFGSSAVSGGSTAAMITETIIETDKPKVAPAPARPSGPSKALKLGAKGKEVDNFVDKLKSEGETIMSSSMGKRTSEATKMHAPPINMESVHMKIEEKITLTCGRDGGLQNMELHGMIMLRISDDKYGRIRLHVENEDKKGVQLQTHPNVDKKLFTAESLIGLKNPEKSFPVNSDVGVLKWRLQTTEESFIPLTINCWPSESGNGCDVNIEYELQEDNLELNDVVITIPLPSGVGAPVIGEIDGEYRHDSRRNTLEWCLPVIDAKNKSGSLEFSIAGQPNDFFPVQVSFVSKKNYCNIQVTKVTQVDGNSPVRFSTETTFLVDKYEIL
Consider B2, for which the binding entry in assay [2] was “binds”.
